Source: patent US20240350659A1, “COMPOSITIONS AND METHODS FOR BIMODAL ANTI-VIRAL COMBINATION THERAPY” (priority 2021, published 2024)
At least one compound was matched to its structure with a doubt left.

Tests used:
SARS-COV-2 [1] = assay: In vitro inhibition of SARS-COV-2 replication in Vero E6 cells (viral load by quantitative real-time RT-PCR); type: cell-based; settings: 1, 10, and 100 mg/ml; 2:1 and 1:1 molar ratio of cyclodextrin to rutin
SARS-COV-2 [2] = settings: WHO Solidarity Trial; cited from earlier work

C[C@@H]1O[C@@H](OC[C@H]2O[C@@H](Oc3c(-c4ccc(O)c(O)c4)oc4cc(O)cc(O)c4c3=O)[C@H](O)[C@@H](O)[C@@H]2O)[C@H](O)[C@H](O)[C@H]1O [rutin]
inhibition of SARS-COV-2 replication in vitro (FIG. 17) (SARS-COV-2 [1]): inhibited SARS-COV-2 replication in vitro at all concentrations tested

CCC(CC)COC(=O)[C@H](C)N[P@](=O)(OC[C@H]1O[C@@](C#N)(c2ccc3c(N)ncnn23)[C@H](O)[C@@H]1O)Oc1ccccc1 [Remdesivir]
effect on hospitalized patients with Covid-19 (SARS-COV-2 [2]): little or no effect
